# Results published in patent US20250194600A1, “MESOIONIC ARYLPYRIDAZINIUM DERIVATIVE OR SALT THEREOF AND INSECTICIDAL AGENT CONTAINING THE COMPOUND AND METHOD FOR USING SAME” (NIHON NOHYAKU CO., LTD., priority 2022, published 2025).
# Some entries share one result that the patent states for a list of compounds.
# System: Diamondback moth (Plutella xylostella)
# Assay: Insecticidal test on diamondback moth, dip treatment of Chinese cabbage seedlings with laid eggs
# Assay type: in vivo
# Settings: seedlings with eggs dipped about 30 seconds, counted 6 days after dip treatment, 25° C.
structure (smiles),measurement,setting,value
"O=C(Nc1ccc(F)cc1)c1c([S-])c[n+](-c2ccc(C(F)(F)F)nc2)nc1O [2-1, 4-((4-fluorophenyl)carbamoyl)-3-hydroxy-1-(6-(trifluoromethyl)pyridin-3-yl)pyridazin-1-ium-5-thiolate]",insecticidal efficacy (corrected mortality rate) against diamondback moth,50 ppm dispersion,A (the mortality rate is 100%.)
same,insecticidal efficacy (corrected mortality rate) against diamondback moth,500 ppm dispersion,A (the mortality rate is 100%.)
